Experimental findings from paper PMC11390915, “Histones and histone variant families in prokaryotes” (Nature Communications, 2024) are described below.

Results are given in words; binding and its absence hold for the method and conditions named. Some results given as binding are weak or reduced against the parent protein; the word gives no strength. Where a sequence is shown, tags or fusion partners need not be part of it.

This assay addresses face-to-face (FtF) histone from Thermococcus kodakarensis (HTkC) (Thermococcus kodakarensis) (UniProt Q5JDW7). The assay can be described thus: crystal structure; HTkC at 4.0 mg/mL in 50 mM Tris-HCl pH 7.0, 100 mM KCl, 10% glycerol; sitting drop vapor diffusion, reservoir 0.01 M trisodium citrate, 33% (w/v) PEG 6000; space group P2(1)2(1)2(1), 1.84 Å; four monomers in the asymmetric unit; both purified.

B1: face-to-face (FtF) histone from Thermococcus kodakarensis (HTkC) (natural protein)
chain: MAEMLVKSKVKEFVKSVDPEMRVSPEFYDALEAEVKALVEKAIKRAQAEGRKTLYARHV
notes: Face-to-face (FtF) histone HTkC of Thermococcus kodakarensis, product of gene TK1040; synthesized gene cloned into pET30b (plasmid pRD503); The purification used heat, heparin and SEC only, so the protein is probably untagged (surmised); Oligonucleotides for cloning are in the Supplementary Information; also called FtF histone HTkC; TK1040; source: E. coli BL21(DE3)pLysS, purified (heating at 70 …)
With B1, the binding entry is reported as “binds”.
